Assay results as given in the supplement of paper PMC10849652.
The list shows a part of the results.

The chains behind the UniProt entries cited, without tags or fusion partners. Where a name states a change or a piece, a line headed by the entry shows the natural chain unless it says otherwise.
UniProt Q9BQ75: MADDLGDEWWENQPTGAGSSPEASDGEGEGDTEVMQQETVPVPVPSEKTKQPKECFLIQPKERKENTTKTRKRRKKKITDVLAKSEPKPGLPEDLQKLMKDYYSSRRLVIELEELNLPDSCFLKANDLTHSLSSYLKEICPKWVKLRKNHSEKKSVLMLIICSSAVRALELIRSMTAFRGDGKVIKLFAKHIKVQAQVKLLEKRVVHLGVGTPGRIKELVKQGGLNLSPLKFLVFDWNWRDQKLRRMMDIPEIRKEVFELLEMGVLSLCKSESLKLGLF
UniProt Q2KHT3: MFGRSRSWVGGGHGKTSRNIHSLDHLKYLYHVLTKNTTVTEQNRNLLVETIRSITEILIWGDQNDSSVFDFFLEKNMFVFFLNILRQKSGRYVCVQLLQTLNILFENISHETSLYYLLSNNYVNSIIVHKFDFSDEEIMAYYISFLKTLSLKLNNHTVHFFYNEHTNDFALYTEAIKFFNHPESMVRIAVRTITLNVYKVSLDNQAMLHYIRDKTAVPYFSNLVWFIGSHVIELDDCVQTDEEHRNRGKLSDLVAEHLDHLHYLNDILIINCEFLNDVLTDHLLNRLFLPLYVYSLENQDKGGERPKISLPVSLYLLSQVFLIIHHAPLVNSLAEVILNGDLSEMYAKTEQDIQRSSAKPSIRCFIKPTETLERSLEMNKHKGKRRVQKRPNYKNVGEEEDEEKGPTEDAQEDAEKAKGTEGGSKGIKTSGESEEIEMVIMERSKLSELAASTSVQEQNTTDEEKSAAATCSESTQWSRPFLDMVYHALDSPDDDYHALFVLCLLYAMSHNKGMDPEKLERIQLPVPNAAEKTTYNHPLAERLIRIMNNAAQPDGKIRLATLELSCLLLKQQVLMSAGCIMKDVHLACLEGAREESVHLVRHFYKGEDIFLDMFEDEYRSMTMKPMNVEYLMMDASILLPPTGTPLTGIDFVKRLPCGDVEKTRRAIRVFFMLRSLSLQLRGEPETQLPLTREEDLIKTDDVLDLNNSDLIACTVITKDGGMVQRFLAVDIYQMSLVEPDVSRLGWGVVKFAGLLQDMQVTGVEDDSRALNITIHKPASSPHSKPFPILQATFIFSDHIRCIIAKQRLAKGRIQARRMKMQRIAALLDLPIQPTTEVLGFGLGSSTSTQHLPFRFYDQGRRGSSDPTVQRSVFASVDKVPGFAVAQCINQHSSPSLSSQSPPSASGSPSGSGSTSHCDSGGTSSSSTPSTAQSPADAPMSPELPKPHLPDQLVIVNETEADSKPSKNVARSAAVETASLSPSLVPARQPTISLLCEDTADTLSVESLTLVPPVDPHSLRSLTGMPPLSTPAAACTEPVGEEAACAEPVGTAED
UniProt Q9NZ45: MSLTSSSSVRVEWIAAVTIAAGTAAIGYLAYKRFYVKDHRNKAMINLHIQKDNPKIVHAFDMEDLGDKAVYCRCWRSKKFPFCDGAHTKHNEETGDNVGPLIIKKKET
UniProt Q8NE01: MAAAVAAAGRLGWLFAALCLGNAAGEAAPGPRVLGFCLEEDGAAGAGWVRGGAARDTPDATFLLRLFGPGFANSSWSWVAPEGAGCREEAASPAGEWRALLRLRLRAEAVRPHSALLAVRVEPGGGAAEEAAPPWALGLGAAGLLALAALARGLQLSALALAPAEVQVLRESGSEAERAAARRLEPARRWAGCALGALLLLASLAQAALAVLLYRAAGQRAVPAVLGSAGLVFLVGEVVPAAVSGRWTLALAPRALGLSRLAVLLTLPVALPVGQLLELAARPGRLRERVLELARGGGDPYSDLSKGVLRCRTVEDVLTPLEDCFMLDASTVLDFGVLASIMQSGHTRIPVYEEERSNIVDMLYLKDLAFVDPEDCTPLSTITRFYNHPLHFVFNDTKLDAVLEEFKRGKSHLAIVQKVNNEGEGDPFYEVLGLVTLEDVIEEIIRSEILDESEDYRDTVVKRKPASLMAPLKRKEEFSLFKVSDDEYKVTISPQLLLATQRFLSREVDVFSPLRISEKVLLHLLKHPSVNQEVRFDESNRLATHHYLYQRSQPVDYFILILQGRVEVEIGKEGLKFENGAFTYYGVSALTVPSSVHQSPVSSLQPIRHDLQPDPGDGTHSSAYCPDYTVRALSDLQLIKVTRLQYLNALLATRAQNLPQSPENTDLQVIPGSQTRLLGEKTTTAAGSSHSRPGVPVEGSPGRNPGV
UniProt P09496: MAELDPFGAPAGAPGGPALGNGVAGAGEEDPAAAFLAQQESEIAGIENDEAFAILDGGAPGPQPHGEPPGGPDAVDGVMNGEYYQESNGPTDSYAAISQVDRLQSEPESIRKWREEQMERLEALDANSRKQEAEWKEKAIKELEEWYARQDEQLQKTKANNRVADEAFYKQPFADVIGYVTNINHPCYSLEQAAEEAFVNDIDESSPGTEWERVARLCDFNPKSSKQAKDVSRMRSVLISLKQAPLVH
UniProt Q92989: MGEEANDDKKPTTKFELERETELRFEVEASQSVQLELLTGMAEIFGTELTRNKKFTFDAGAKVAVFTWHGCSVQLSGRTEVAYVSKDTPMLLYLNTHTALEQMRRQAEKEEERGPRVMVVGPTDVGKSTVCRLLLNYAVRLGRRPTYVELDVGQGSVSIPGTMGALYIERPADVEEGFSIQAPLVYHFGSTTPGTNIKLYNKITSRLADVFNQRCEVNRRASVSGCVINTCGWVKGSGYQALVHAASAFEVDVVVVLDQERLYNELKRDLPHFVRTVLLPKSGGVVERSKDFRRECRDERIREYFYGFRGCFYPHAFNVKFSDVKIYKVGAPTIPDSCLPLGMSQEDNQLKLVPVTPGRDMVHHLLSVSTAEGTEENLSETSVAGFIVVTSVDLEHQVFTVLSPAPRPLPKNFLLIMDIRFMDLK
UniProt Q9NYJ1, whole entry, looked up: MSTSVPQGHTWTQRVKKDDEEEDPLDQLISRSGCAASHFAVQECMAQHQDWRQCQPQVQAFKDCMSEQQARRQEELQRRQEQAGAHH
UniProt Q8IY22: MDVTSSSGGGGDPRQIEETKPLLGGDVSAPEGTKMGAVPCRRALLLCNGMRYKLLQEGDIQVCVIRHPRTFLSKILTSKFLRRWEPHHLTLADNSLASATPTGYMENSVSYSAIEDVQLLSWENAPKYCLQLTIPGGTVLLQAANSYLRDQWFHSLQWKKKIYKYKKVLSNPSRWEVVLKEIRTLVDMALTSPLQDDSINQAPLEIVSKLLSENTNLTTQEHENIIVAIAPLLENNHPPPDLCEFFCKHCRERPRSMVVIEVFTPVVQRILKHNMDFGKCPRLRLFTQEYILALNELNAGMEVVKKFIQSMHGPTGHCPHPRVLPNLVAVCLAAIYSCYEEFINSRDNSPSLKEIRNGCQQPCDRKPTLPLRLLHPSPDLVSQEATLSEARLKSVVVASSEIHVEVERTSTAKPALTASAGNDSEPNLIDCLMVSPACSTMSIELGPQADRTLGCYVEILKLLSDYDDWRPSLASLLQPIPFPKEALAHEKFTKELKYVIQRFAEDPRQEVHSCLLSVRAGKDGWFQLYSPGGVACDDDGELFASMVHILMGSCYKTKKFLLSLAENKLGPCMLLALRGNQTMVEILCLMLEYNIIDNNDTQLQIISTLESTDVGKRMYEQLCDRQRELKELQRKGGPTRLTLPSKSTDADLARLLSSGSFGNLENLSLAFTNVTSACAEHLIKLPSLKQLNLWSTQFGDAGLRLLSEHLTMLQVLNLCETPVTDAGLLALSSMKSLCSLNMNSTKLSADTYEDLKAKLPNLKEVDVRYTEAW
UniProt O94985: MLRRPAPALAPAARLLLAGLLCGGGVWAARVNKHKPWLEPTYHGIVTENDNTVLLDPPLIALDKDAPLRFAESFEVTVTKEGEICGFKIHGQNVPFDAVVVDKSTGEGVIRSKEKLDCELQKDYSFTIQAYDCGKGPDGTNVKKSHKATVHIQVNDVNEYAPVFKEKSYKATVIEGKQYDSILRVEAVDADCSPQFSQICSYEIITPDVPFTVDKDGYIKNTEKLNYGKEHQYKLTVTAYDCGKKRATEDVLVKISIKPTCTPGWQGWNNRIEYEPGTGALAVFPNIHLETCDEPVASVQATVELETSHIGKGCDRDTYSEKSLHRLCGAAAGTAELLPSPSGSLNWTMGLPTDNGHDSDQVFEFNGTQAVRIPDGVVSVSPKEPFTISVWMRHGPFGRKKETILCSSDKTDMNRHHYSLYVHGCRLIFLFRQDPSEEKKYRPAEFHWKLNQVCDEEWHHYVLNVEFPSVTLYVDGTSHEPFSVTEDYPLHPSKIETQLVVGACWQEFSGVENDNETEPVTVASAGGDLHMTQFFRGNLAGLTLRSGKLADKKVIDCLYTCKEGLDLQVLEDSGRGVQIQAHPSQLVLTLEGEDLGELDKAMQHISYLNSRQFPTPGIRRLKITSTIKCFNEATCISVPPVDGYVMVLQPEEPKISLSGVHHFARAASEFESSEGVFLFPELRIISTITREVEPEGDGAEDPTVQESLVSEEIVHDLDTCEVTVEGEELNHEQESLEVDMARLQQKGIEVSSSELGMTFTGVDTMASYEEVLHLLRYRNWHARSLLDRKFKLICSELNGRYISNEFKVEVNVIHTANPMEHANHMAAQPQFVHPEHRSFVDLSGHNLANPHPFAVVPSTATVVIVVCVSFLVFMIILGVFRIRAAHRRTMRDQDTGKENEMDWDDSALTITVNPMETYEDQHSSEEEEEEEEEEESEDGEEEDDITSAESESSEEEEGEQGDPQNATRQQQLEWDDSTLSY
UniProt Q96NY7: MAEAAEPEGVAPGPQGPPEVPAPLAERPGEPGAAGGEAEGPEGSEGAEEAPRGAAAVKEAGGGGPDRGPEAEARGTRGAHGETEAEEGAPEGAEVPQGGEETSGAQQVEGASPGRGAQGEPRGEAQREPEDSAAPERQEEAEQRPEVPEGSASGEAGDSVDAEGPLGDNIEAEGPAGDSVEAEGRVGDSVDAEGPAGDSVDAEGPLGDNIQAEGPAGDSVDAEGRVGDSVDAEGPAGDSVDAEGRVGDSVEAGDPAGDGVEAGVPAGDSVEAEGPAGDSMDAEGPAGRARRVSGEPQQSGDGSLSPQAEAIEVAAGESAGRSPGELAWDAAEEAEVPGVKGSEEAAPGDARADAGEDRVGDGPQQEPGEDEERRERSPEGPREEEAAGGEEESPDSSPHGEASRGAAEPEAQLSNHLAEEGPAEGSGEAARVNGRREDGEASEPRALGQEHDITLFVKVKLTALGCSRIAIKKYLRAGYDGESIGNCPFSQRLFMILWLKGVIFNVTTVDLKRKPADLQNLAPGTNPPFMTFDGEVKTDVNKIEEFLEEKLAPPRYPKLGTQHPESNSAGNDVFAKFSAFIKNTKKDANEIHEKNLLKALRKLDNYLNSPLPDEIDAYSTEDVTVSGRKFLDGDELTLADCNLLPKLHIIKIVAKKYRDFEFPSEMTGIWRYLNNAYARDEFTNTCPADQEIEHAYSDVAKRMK

Tests used:
Test in all cases: log2 fold change, soluble protein after heating vs DMSO (PISA); higher = thermal stabilisation; K562 cells, 10 uM, 30 min; active = over 0.2 and 3.5 SD of the protein, either way, in both replicates (recomputed)
[1] = compound: NC(=O)Nc1cc(-c2cccc(F)c2)sc1C(=O)N[C@H]1CCCNC1
Summary of the method: (§1)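 K562 cells (2×10^6 cells/mL) were treated with 10 μM compound for 30 min, and aliquots were heated for 3 min over 48°C-58°C. Pooled aliquots were extracted in PBS with 0.5% NP-40 at 4°C, and the supernatant after 21,000xg for 90 min was measured by TMTpro 16plex LC-MS/MS with channel sums equalised. Reported thermal stability, relative to control samples and from duplicates, is a log2 fold change.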

[2] = compound: NC(=O)c1cnc(N[C@@H]2CCCC[C@@H]2N)nc1Nc1cccc(-n2nccn2)c1
Summary of the method: as §1

[3] = compound: NC1(c2ccc(-c3nc4ccn5c(=O)[nH]nc5c4cc3-c3ccccc3)cc2)CCC1
Summary of the method: as §1

[4] = compound: NCC(=O)Nc1ccc(-n2nc(C(F)(F)F)cc2-c2ccc3c(ccc4ccccc43)c2)cc1
Summary of the method: as §1

entinostat = compound: Nc1ccccc1NC(=O)c1ccc(CNC(=O)OCc2cccnc2)cc1 [entinostat]
Summary of the method: as §1

vorinostat = compound: O=C(CCCCCCC(=O)Nc1ccccc1)NO [vorinostat]
Summary of the method: as §1

citarinostat = compound: O=C(CCCCCCNC(=O)c1cnc(N(c2ccccc2)c2ccccc2Cl)nc1)NO [citarinostat]
Summary of the method: as §1

silmitasertib = compound: O=C(O)c1ccc2c(c1)nc(Nc1cccc(Cl)c1)c1ccncc12 [silmitasertib]
Summary of the method: as §1

[5] = compound: O=C1NC(=O)C(c2cnc3ccccn23)=C1c1cn2c3c(cc(F)cc13)CN(C(=O)N1CCCCC1)CC2
Summary of the method: as §1

[6] = compound: c1cc(OCCN2CCCCC2)cc(-c2n[nH]c3ccc(-c4nnc[nH]4)cc23)c1
Summary of the method: as §1

entospletinib = compound: c1cn2cc(-c3ccc4cn[nH]c4c3)nc(Nc3ccc(N4CCOCC4)cc3)c2n1 [entospletinib]
Summary of the method: as §1

Measured: log2 fold change

CMSS1 (UniProt Q9BQ75)
inactive: [1] 0.029 | [2] 0.033 | [3] 0.055 | [4] -0.041 | entinostat 0.017 | vorinostat 0.036 | citarinostat 0.072 | silmitasertib 0.031 | [5] 0.079 | [6] -0.028 | entospletinib -0.034

CLEC16A (UniProt Q2KHT3)
inactive: [1] -0.003 | [2] 0.033 | [3] 0.006 | [4] 0.038 | entinostat -0.014 | vorinostat 0.003 | citarinostat -0.037 | silmitasertib -0.024 | [5] -0.089 | [6] 0.001 | entospletinib -0.054

CLIC1 (UniProt O00299)
inactive: [1] -0.046 | [2] 0.016 | [3] -0.009 | [4] 0 | entinostat 0.006 | vorinostat -0.008 | citarinostat 0.008 | silmitasertib 0.016 | [5] -0.072 | [6] -0.027 | entospletinib 0.01

CISD1 (UniProt Q9NZ45)
inactive: [1] 0.023 | [2] 0.003 | [3] 0.015 | [4] 0.048 | entinostat -0.021 | vorinostat -0.082 | citarinostat 0.007 | silmitasertib -0.005 | [5] -0.035 | [6] 0.013 | entospletinib 0.047

CKMT2 (UniProt P17540)
inactive: [1] -0.167 | [2] 0.02 | [3] -0.104 | [4] -0.093 | entinostat -0.064 | vorinostat 0.312 | citarinostat -0.025 | silmitasertib 0.013 | [5] -0.083 | [6] 0.051 | entospletinib 0.06

3 neighbouring records from above, for reference:
CLEC16A (UniProt Q2KHT3)
inactive: [1] -0.003 | [2] 0.033 | [3] 0.006 | [4] 0.038 | entinostat -0.014 | vorinostat 0.003 | citarinostat -0.037 | silmitasertib -0.024 | [5] -0.089 | [6] 0.001 | entospletinib -0.054

CLIC1 (UniProt O00299)
inactive: [1] -0.046 | [2] 0.016 | [3] -0.009 | [4] 0 | entinostat 0.006 | vorinostat -0.008 | citarinostat 0.008 | silmitasertib 0.016 | [5] -0.072 | [6] -0.027 | entospletinib 0.01

CISD1 (UniProt Q9NZ45)
inactive: [1] 0.023 | [2] 0.003 | [3] 0.015 | [4] 0.048 | entinostat -0.021 | vorinostat -0.082 | citarinostat 0.007 | silmitasertib -0.005 | [5] -0.035 | [6] 0.013 | entospletinib 0.047

Going on with the list:

CNNM3 (UniProt Q8NE01)
inactive: [1] -0.125 | [2] -0.031 | [3] -0.025 | [4] -0.073 | entinostat -0.024 | vorinostat 0.4 | citarinostat -0.001 | silmitasertib -0.012 | [5] 0.038 | [6] -0.086 | entospletinib 0.024

CLTA isoform 2 (UniProt P09496)
inactive: [1] 0.074 | [2] 0.05 | [3] 0.017 | [4] 0.095 | entinostat -0.073 | vorinostat -0.052 | citarinostat -0.092 | silmitasertib 0.017 | [5] 0.012 | [6] -0.072 | entospletinib 0.056

CNOT11 (UniProt Q9UKZ1)
inactive: [1] 0.104 | [2] -0.082 | [3] -0.104 | [4] -0.052 | entinostat 0.06 | citarinostat 0.01 | silmitasertib 0.047 | [5] 0.107 | [6] -0.109 | entospletinib -0.067

CLP1 (UniProt Q92989)
inactive: [1] -0.066 | [3] -0.123 | entinostat 0.106 | citarinostat 0.122 | silmitasertib -0.144 | [6] 0.028 | entospletinib 0.081

CIP2A (UniProt Q8TCG1)
inactive: [1] -1.03 | [3] 0.093 | entinostat -0.107 | vorinostat -0.253 | silmitasertib 0.398 | [5] 0.21

COA4 isoform 2 (UniProt Q9NYJ1)
inactive: [1] 0.073 | [2] 0.04 | [3] 0.006 | entinostat 0.07 | vorinostat -0.066 | citarinostat -0.03 | silmitasertib 0.014 | [5] -0.018 | [6] -0.078 | entospletinib 0.062

CMIP (UniProt Q8IY22)
inactive: [1] 0.143 | [3] -0.056 | entinostat 0.184 | vorinostat 0.129 | citarinostat 0.071 | silmitasertib 0.121 | [5] 0.106 | [6] -0.14 | entospletinib 0.247

CLSTN1 (UniProt O94985)
inactive: [1] -0.198 | [2] -0.34 | [3] -0.035 | entinostat 0.129 | vorinostat -0.093 | citarinostat -0.31 | silmitasertib -0.013 | [6] -0.054 | entospletinib 0.005

CLIC6 (UniProt Q96NY7)
inactive: [1] -0.219 | [3] -0.164 | [4] -0.127 | entinostat -0.041 | citarinostat -0.045 | silmitasertib 0.091 | [5] -0.259 | [6] 0.079 | entospletinib 0.143
